Test results from US20020177193A1.
These are yes or no findings as the source states them, for the method shown. In cells and extracts the contact can be indirect. These calls come from enrichment with a bait or labelling near it, and not all partners need be listed.

Sequences of proteins named here, by UniProt entry; tags and fusion partners are left off. Residues count along the entry.
UniProt P16234, residues 24-528: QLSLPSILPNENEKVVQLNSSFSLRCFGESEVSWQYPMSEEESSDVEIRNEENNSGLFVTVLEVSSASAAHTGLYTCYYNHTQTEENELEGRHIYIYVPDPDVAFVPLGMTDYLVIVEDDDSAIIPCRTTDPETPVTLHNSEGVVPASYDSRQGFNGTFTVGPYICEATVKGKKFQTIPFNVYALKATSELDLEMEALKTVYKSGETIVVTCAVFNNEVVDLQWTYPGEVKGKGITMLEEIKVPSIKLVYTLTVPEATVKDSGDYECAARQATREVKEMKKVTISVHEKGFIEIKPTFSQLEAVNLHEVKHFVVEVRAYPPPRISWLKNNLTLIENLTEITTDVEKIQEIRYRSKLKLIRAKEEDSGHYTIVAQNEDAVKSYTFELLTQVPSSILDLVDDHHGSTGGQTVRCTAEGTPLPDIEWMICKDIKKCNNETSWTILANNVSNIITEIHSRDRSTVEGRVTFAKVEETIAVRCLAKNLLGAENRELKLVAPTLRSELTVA
UniProt P01127, residues 82-190: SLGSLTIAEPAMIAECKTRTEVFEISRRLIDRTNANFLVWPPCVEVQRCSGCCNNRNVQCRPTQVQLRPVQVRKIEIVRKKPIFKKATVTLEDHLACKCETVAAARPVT

Molecular target: PDGF alpha receptor IgG Fc-receptor extracellular domain fusion protein (UniProt P16234)
Assay: SELDI mass spectrometry (ProteinChip); receptor-Fc captured on protein A, compared with an Fc only control

| Substance | binding |
| --- | --- |
| PDGF-AA (from UniProt P04085 87-211) (ligand) | binds |
| PDGF-BB (from UniProt P01127 82-190) (ligand) | binds |
| PDGF AB (from UniProt P04085 87-211; P01127 82-190) (ligand) | binds |
